Assay results as given in patent US12514851B2, “Use of 2,3,5-substituted thiophene compound for preventing, ameliorating, or treating ovarian cancer” (PHAROS IBIO CO., LTD, priority 2020, dated 2026).

What was measured:
Test in all cases: Inhibitory activity against ovarian cancer cell lines, agents alone (Celltiter glo cell viability)
Assay type in all cases: cell-based
[1] = tested on: CAOV3 ovarian cancer cell line
[2] = tested on: OVCAR3 ovarian cancer cell line
[3] = tested on: SK-OV-3 ovarian cancer cell line; settings: SK-OV3
[4] = tested on: SW626 ovarian cancer cell line

Row | Compound | integer ratio of IC50 relative to IC50 value (1×) of PHI-101 [1] | integer ratio of IC50 relative to IC50 value (1×) of PHI-101 [2] | integer ratio of IC50 relative to IC50 value (1×) of PHI-101 [3] | integer ratio of IC50 relative to IC50 value (1×) of PHI-101 [4]
1 | O=C(c1cc(Cc2n[nH]c(=O)c3ccccc23)ccc1F)N1CCN(C(=O)C2CC2)CC1 [Olaparib, olaparib] | 56 | 34 | 29 | 40
2 | NC(=O)Nc1cc(C#Cc2cccc(F)c2)sc1C(=O)N[C@H]1CCCNC1 [PHI-101, (S)-5-((3-fluorophenyl)ethynyl)-N-(piperidin-3-yl)-3-ureido thiophene-2-carboxamide] | 1 | 1 | 1 | 1
